We go through four molecules from PMC5386385.

Chains of the proteins cited; added tags and fusions are not shown. Residues count along the entry.
UniProt Q07820, residues 173-329: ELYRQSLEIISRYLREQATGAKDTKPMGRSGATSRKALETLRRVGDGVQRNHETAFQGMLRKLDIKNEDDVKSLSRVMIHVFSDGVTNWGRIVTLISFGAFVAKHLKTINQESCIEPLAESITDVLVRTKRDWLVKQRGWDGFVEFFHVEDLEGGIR

No constants are given. Whether binding was seen depends on the method and setting. Some binding calls cover weakened binding; strength is not graded here.

The target of assay [1] is T1, BAK (human (endogenous in H1299)), Q16611.
T1 chain: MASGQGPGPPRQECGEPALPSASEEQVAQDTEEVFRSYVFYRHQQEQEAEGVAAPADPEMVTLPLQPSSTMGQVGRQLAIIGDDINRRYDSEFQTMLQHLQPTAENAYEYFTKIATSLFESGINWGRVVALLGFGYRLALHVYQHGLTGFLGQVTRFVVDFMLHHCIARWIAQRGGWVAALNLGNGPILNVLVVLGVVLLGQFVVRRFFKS
The experiment in a line: SEC; H1299 cells exposed to A-1210477 (10 uM), A-1331852 (100 nM) or both; CHAPS lysate on Superose 6 and Superdex S200, fractions immunoblotted (that Figure 4d was done in this way is not said in so many words). The note with it: remark: other sources report otherwise.

The target in assay [2] is WT MCL-1 fusion protein (N-terminal His6-tag fused to amino acids Glu173-Arg329, containing the BH3, BH1 and BH2 domains) (human) (UniProt Q07820). Nature of the assay: differential scanning fluorimetry (thermal shift assay); purified MCL-1 proteins (10 uM) with or without the indicated concentrations of ligand, Sypro-Orange, thermal ramping 0.3 °C per min between 25 and 94 °C, final DMSO 4% v/v; ΔTm against buffer without peptide; both purified. (Differential scanning fluorimetry follows unfolding on heating by fluorescence.)

B1: BAK, Q16611 1-211 (protein)
chain: MASGQGPGPPRQECGEPALPSASEEQVAQDTEEVFRSYVFYRHQQEQEAEGVAAPADPEMVTLPLQPSSTMGQVGRQLAIIGDDINRRYDSEFQTMLQHLQPTAENAYEYFTKIATSLFESGINWGRVVALLGFGYRLALHVYQHGLTGFLGQVTRFVVDFMLHHCIARWIAQRGGWVAALNLGNGPILNVLVVLGVVLLGQFVVRRFFKS
For B1, the binding entry in assay [1] was “binds”.

Consider EQWAREIGAQARRMAADLNA [PUMA-2A peptide (a negative control)], for which the binding entry in assay [2] was “no binding”.

WSSAAQLTAARLKALGDELHQ [HRK peptide]: in assay [2], the binding result was “no binding”.

Take LWAAQRYGRELRRMSDEFEGSFKGL [BAD peptide]: the binding result in assay [2] is reported as “no binding”.
